Experimental findings from the supplement of paper PMC10849652 are described below.

Sequences of proteins named here, by UniProt entry; tags and fusion partners are left off. A change or cut given only in a name is not applied to a line headed by its entry.
UniProt Q13901: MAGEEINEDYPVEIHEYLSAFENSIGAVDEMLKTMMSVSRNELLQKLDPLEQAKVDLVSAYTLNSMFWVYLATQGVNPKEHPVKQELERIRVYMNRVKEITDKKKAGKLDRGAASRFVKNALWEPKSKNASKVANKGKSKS
UniProt O60566, whole entry, looked up: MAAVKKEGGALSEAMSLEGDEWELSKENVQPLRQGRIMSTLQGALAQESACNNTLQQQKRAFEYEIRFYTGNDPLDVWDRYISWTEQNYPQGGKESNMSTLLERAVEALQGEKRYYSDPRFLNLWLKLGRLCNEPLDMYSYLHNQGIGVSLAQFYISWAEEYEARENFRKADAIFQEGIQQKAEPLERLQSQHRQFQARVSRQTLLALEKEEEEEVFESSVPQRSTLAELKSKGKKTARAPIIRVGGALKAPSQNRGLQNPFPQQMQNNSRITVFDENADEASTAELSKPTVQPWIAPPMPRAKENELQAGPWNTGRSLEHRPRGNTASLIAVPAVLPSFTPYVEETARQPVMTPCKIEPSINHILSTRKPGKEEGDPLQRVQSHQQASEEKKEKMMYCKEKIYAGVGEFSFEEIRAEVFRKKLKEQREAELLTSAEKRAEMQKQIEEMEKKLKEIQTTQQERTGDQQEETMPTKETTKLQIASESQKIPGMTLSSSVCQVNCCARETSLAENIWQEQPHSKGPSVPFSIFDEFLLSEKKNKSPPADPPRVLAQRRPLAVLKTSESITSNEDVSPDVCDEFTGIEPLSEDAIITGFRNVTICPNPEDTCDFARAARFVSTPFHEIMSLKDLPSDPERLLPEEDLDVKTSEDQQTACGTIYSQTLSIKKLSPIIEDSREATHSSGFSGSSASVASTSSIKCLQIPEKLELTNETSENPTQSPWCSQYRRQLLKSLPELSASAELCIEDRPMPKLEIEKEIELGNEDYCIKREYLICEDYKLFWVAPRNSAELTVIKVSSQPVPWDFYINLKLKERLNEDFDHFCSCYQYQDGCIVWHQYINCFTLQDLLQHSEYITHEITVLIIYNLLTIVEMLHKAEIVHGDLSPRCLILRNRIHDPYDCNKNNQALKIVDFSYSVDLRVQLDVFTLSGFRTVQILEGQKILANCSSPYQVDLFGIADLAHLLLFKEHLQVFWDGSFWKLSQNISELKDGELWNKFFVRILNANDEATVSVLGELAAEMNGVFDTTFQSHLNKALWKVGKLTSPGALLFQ
UniProt Q99622: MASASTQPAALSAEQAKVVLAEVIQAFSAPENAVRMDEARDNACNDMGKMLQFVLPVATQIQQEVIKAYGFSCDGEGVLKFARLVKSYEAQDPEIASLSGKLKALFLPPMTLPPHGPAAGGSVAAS
UniProt Q9BRJ6: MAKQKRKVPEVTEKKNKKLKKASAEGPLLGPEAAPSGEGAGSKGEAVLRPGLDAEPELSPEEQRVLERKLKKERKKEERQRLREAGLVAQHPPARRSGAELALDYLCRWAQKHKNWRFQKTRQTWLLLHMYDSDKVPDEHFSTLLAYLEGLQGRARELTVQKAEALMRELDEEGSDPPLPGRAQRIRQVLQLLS
UniProt Q07021: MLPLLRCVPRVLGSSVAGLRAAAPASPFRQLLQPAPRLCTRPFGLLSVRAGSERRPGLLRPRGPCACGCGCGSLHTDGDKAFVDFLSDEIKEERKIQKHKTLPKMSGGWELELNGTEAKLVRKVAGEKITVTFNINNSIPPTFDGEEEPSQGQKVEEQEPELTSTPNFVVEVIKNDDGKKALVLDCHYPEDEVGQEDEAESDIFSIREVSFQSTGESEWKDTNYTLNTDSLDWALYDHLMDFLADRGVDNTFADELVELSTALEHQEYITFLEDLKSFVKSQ
UniProt Q8N1A6: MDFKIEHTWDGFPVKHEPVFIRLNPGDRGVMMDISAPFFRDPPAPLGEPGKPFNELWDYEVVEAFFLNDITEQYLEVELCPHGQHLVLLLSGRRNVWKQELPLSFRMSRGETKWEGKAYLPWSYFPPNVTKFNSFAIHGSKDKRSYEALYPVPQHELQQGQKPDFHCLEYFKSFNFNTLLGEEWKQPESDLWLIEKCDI
UniProt Q96GV9: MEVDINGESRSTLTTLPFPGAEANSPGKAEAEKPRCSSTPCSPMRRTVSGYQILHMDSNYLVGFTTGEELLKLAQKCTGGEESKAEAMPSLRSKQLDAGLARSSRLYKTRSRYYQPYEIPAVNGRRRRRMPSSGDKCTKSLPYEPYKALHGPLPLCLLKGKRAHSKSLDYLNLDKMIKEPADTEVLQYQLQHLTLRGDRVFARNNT
UniProt Q96GQ5: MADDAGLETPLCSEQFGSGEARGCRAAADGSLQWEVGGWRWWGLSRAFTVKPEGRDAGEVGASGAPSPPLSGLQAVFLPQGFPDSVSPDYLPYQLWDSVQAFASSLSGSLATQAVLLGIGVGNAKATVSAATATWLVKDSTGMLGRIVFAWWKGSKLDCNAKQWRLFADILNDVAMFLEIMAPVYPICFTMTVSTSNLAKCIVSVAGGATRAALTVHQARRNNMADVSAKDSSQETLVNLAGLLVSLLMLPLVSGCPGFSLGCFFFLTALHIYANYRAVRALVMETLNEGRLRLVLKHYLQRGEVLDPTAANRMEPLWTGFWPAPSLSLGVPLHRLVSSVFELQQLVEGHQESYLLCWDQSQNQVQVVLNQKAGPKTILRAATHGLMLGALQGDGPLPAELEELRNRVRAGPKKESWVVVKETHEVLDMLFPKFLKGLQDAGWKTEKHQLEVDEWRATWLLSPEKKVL
UniProt A1L170: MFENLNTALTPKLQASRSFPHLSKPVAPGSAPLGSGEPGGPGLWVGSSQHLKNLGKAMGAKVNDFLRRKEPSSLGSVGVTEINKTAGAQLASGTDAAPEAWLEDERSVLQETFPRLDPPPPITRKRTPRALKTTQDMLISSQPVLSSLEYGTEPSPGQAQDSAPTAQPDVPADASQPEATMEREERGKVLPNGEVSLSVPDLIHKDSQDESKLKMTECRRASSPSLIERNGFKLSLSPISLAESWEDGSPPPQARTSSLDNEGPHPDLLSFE
UniProt Q5SNV9: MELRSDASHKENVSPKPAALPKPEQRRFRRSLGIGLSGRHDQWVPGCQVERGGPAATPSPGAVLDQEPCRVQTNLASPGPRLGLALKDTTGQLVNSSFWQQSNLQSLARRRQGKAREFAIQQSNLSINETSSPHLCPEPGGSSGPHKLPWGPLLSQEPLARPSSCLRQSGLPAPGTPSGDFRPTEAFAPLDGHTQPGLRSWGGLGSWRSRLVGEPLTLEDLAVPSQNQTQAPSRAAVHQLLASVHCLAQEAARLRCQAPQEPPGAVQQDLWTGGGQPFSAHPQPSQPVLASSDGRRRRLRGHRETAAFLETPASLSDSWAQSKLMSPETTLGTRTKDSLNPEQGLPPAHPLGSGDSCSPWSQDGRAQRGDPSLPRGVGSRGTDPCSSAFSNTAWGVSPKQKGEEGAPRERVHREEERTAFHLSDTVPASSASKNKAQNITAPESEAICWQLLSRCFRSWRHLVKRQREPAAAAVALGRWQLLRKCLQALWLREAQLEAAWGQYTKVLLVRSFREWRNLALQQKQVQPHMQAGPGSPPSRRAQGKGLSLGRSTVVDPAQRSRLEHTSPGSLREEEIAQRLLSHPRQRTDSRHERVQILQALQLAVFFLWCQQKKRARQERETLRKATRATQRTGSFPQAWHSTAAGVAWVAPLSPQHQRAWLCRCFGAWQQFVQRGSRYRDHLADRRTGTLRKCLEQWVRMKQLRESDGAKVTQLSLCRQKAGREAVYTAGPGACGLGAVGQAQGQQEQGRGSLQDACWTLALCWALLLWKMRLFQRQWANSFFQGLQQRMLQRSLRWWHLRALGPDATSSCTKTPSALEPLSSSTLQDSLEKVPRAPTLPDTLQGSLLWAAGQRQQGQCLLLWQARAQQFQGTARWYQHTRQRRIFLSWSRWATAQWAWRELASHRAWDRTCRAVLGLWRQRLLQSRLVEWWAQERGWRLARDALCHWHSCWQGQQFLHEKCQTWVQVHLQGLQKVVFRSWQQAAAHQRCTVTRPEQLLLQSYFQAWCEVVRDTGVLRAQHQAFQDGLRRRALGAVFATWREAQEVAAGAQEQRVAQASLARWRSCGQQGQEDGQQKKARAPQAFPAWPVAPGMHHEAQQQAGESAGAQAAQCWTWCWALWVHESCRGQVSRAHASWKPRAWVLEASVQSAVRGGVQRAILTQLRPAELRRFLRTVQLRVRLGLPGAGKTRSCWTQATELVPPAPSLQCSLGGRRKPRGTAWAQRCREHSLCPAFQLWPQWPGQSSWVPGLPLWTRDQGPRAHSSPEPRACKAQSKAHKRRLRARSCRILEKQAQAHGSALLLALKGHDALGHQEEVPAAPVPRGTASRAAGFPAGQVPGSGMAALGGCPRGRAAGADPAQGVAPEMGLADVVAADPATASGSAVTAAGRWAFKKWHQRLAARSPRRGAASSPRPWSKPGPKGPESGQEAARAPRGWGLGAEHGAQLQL
UniProt Q9BUW7: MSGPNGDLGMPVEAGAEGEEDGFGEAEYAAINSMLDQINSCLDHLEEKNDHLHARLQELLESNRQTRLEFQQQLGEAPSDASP
UniProt Q9NS00: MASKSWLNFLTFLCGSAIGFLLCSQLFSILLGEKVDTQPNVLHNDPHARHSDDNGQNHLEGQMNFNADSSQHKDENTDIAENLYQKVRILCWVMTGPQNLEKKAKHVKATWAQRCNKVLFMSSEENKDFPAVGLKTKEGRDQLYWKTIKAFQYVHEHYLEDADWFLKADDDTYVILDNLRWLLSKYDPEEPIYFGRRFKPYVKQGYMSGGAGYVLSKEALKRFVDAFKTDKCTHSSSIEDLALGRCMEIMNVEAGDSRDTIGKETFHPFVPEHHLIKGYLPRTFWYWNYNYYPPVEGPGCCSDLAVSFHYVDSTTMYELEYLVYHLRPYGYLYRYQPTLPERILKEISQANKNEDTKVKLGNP
UniProt P0C0L4: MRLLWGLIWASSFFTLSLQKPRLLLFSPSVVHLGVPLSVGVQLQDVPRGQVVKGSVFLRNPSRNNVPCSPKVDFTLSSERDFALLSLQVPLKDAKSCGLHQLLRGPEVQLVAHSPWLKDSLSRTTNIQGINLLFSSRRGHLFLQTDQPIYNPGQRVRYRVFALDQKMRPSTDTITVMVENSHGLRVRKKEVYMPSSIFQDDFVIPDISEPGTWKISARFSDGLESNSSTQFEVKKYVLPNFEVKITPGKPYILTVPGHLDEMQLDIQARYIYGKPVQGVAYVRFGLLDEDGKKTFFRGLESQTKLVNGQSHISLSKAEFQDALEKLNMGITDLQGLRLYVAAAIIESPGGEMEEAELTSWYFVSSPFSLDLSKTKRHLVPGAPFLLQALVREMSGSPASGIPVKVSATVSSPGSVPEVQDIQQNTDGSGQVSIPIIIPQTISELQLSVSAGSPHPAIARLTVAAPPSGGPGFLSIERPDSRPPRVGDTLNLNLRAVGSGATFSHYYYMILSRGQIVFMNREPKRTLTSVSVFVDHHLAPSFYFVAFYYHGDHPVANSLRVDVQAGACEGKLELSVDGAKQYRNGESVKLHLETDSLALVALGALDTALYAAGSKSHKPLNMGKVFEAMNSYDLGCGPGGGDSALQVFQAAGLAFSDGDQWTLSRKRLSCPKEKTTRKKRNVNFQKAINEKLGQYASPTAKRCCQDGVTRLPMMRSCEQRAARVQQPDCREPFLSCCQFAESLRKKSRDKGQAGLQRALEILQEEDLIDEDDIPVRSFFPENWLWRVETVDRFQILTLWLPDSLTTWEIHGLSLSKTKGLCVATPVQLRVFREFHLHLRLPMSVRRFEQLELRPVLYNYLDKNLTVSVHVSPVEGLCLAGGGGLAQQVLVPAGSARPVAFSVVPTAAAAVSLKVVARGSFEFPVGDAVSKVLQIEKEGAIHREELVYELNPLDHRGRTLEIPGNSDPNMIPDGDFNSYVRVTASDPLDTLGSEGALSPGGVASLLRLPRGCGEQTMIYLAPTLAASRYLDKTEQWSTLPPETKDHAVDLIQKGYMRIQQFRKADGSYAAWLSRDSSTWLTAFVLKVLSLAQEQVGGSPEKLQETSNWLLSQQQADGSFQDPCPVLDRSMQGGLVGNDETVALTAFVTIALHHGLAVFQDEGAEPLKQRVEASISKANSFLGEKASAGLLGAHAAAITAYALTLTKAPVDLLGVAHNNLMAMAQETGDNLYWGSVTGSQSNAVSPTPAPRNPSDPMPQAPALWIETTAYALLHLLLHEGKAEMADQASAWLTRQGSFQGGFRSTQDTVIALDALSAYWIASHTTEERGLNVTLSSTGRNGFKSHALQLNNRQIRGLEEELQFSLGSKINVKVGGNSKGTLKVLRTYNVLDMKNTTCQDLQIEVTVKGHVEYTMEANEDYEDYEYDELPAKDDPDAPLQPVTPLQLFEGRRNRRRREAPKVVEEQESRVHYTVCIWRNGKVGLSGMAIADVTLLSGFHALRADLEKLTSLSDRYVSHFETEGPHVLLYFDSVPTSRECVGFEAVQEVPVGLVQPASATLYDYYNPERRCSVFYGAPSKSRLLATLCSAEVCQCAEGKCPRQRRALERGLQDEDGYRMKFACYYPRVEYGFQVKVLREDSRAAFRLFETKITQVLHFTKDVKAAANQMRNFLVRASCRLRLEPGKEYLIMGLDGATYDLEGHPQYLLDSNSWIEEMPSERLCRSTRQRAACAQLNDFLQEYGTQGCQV

Some of the results follow.

Compound in the first assay: NCC(=O)Nc1ccc(-n2nc(C(F)(F)F)cc2-c2ccc3c(ccc4ccccc43)c2)cc1
Nature of the assay: log2 fold change, soluble protein after heating vs DMSO (PISA); higher = thermal stabilisation; K562 lysate, 10 uM; active = over 0.2 and 3.5 SD of the protein, either way, in both replicates (recomputed). A digest of the protocol:
(§1)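 Values give the log-two fold change in thermal stability against solvent controls, from duplicates. Crude K562 extract at 1 mg/mL protein, made by dounce homogenisation in PBS pH 7.4 with 1 mM MgCl2, was treated with 10 μM compound for 30 min. After 3 min heating across 48°C-58°C, aliquots were pooled, adjusted to 0.5% NP-40 at 4°C and centrifuged at 21,000xg for 90 min. The supernatant was measured by TMTpro 16plex LC-MS/MS with channel sums equalised.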
With C1D (UniProt Q13901), the log2 fold change is inactive: 0.046.

As to BUB1B isoform 3 (UniProt O60566), the log2 fold change was inactive: 0.004.

Regarding C12orf57 (UniProt Q99622), the log2 fold change is inactive: -0.219.

With CAB39 (UniProt Q9Y376), the log2 fold change is inactive: -0.037.

For CAMKK2 (UniProt Q96RR4), the log2 fold change is inactive: 0.081.

For the target CAB39L (UniProt Q9H9S4), the log2 fold change was inactive: 0.037.

On to C15orf40 (UniProt Q8WUR7), for which the log2 fold change was inactive: 0.024.

With C19orf53 (UniProt Q9UNZ5), the log2 fold change is inactive: -0.146.

On to C4BPA (UniProt P04003), for which the log2 fold change is inactive: 0.018.

As for CAMK1 (UniProt Q14012), the log2 fold change was inactive: -0.13.

Regarding CALCOCO1 (UniProt Q9P1Z2), the log2 fold change is inactive: 0.071.

On to C7orf50 (UniProt Q9BRJ6), for which the log2 fold change is inactive: 0.02.

As to C1QBP (UniProt Q07021), the log2 fold change is inactive: 0.014.

As to C4orf33 (UniProt Q8N1A6), the log2 fold change was inactive: 0.013.

For C16orf70 (UniProt Q9BSU1), the log2 fold change was inactive: -0.013.

As to C19orf25 (UniProt Q9UFG5), the log2 fold change was inactive: 0.134.

Turning to BZW2 (UniProt Q9Y6E2), the log2 fold change was inactive: 0.005.

On to CAMSAP3 isoform 2 (UniProt Q9P1Y5), for which the log2 fold change is inactive: 0.048.

On to C5orf30 (UniProt Q96GV9), for which the log2 fold change was inactive: 0.128.

C16orf58 (UniProt Q96GQ5): the log2 fold change is inactive: -0.031.

For the target C1orf226 isoform 2 (UniProt A1L170), the log2 fold change is inactive: -0.087.

On to C17orf80 (UniProt Q9BSJ5), for which the log2 fold change is inactive: 0.089.

C8orf33 isoform 2 (UniProt Q9H7E9): the log2 fold change is inactive: -0.014.

Consider C1orf167 isoform 2 (UniProt Q5SNV9), for which the log2 fold change is inactive: 0.169.

With CAPNS1 (UniProt K7ES78), the log2 fold change is inactive: -0.234.

As for CAPZA1 (UniProt P52907), the log2 fold change was inactive: 0.03.

In the case of C19orf57 (UniProt Q0VDD7), the log2 fold change was inactive: 0.237.

For CANX (UniProt D6RHJ3), the log2 fold change was inactive: 0.012.

On to CA8 (UniProt P35219), for which the log2 fold change was inactive: 0.023.

CAMSAP1 isoform 3 (UniProt Q5T5Y3): the log2 fold change was inactive: 0.037.

On to C12orf60 (UniProt Q5U649), for which the log2 fold change was inactive: 0.09.

In the case of C3orf33 (UniProt Q6P1S2), the log2 fold change was inactive: -0.085.

In the case of C9orf16 (UniProt Q9BUW7), the log2 fold change was inactive: 0.089.

With C12orf65 (UniProt Q9H3J6), the log2 fold change is inactive: -0.028.

C1GALT1 (UniProt Q9NS00): the log2 fold change is inactive: 0.017.

Consider CAMK2B (UniProt Q13554), for which the log2 fold change was inactive: 0.014.

Take C4A (UniProt P0C0L4): the log2 fold change was inactive: 0.179.

With BTN3A3 (UniProt O00478), the log2 fold change is inactive: -0.252.

For the target CALB1 (UniProt P05937), the log2 fold change was inactive: 0.011.

Compound in the next assay: O=C(CCCCCCC(=O)Nc1ccccc1)NO [vorinostat]
The assay is described as above. A digest of the protocol:
as §1
With C1D (UniProt Q13901), the log2 fold change is inactive: 0.051.

On to BUB1B isoform 3 (UniProt O60566), for which the log2 fold change was active: -0.376.

C12orf57 (UniProt Q99622): the log2 fold change is inactive: 0.174.

Turning to CAB39 (UniProt Q9Y376), the log2 fold change is inactive: 0.113.

On to CAMKK2 (UniProt Q96RR4), for which the log2 fold change is active: -0.325.

As for CAB39L (UniProt Q9H9S4), the log2 fold change was inactive: 0.045.

Consider C15orf40 (UniProt Q8WUR7), for which the log2 fold change was inactive: 0.101.

In the case of C19orf53 (UniProt Q9UNZ5), the log2 fold change was inactive: 0.073.

For C4BPA (UniProt P04003), the log2 fold change is inactive: 0.168.

As for CAMK1 (UniProt Q14012), the log2 fold change was inactive: 0.027.

For CALCOCO1 (UniProt Q9P1Z2), the log2 fold change was inactive: -0.031.

As for C7orf50 (UniProt Q9BRJ6), the log2 fold change is inactive: 0.044.

Regarding C1QBP (UniProt Q07021), the log2 fold change was inactive: 0.087.

Take C4orf33 (UniProt Q8N1A6): the log2 fold change was inactive: 0.031.

Turning to C16orf70 (UniProt Q9BSU1), the log2 fold change was active: -0.382.

On to C19orf25 (UniProt Q9UFG5), for which the log2 fold change was inactive: 0.207.

Consider BZW2 (UniProt Q9Y6E2), for which the log2 fold change is inactive: 0.031.

On to C5orf30 (UniProt Q96GV9), for which the log2 fold change was inactive: 0.104.

Take C16orf58 (UniProt Q96GQ5): the log2 fold change was inactive: 0.239.

C17orf80 (UniProt Q9BSJ5): the log2 fold change was inactive: 0.113.

In the case of C8orf33 isoform 2 (UniProt Q9H7E9), the log2 fold change is inactive: -0.031.

With C1orf167 isoform 2 (UniProt Q5SNV9), the log2 fold change is inactive: -0.092.

For CAPNS1 (UniProt K7ES78), the log2 fold change was inactive: -0.011.

For CAPZA1 (UniProt P52907), the log2 fold change is inactive: 0.113.

Consider CA8 (UniProt P35219), for which the log2 fold change is inactive: -0.014.

Turning to CAMSAP1 isoform 3 (UniProt Q5T5Y3), the log2 fold change is inactive: -0.029.

Consider C12orf60 (UniProt Q5U649), for which the log2 fold change is inactive: 0.394.

For the target C3orf33 (UniProt Q6P1S2), the log2 fold change is inactive: -0.118.

Consider C9orf16 (UniProt Q9BUW7), for which the log2 fold change is inactive: 0.161.

With C12orf65 (UniProt Q9H3J6), the log2 fold change was inactive: 0.039.

As for C1GALT1 (UniProt Q9NS00), the log2 fold change is inactive: 0.156.

Take CAMK2B (UniProt Q13554): the log2 fold change is inactive: -0.133.

As to C4A (UniProt P0C0L4), the log2 fold change was inactive: 0.055.

Regarding BTN3A3 (UniProt O00478), the log2 fold change was inactive: 0.077.

For the target CALB1 (UniProt P05937), the log2 fold change is inactive: 0.072.
